In US11246877B2, “Nanoparticles for chemotherapy, targeted therapy, photodynamic therapy, immunotherapy, and any combination thereof” (The University of Chicago, priority 2016, dated 2022):
At least one structure is not confirmed: it was looked up by name or label, or the drawing left a doubt.

Legend:
Type in all cases: cell-based, murine
CT26 cells [1] = assay: In vitro immunogenic cell death (CRT, immunofluorescence and flow cytometry); conditions: CT26, 1 μM, 24 h
CT26 cells [2] = assay: HMGB-1 release by ELISA; conditions: CT26, oxaliplatin 10 μM and/or DHA 20 μM, 48 h
Protocol: The release of high mobility group box-1 (HMGB-1) protein after ICD was evaluated by ELISA. CT26 cells were seeded at 1×10^6 cells per well in 6-well plates and further cultured for 24 h. The culture media were replaced by 2 mL of fresh culture media containing 10% FBS. Oxaliplatin, DHA, chol-DHA, oxaliplatin+DHA, NCP-3, Zn/DHA, NCP-3/DHA, and NCP-3/OA-DHA were added to the cells, respectively, at equivalent oxaliplatin and/or DHA dose of 10 μM and 20 μM, respectively. Cells incubated with PBS served as control. Following incubation of 48 h, the supernatant was collected and analyzed by an ELISA kit (Chondrex, Inc., Redmond, Wash., United States of America) by microplate reader.

CT26 cells [3] = assay: Apoptosis/necrosis by Annexin V flow cytometry; conditions: CT26, 24 h, oxaliplatin concentration 10 μM
Protocol: CT26 cells seeded in 24-well plates at 1×10^5 cells/well were first incubated with NCP-3/DHA or appropriate controls for 24 h at an oxaliplatin concentration of 10 μM. The floating and adherent cells were collected and stained with Alexa Fluor 488 AnnexinV/dead cell apoptosis kit (Invitrogen, USA) according to manufacturer's instructions. The apoptosis and necrosis were examined by a flow cytometry (LSRII Blue, BD, Franklin Lakes, N.J., United States of America).

CT26 cells [4] = assay: Immunogenic cell death: cell surface CRT by flow cytometry; conditions: CT26, oxaliplatin 10 μM and/or DHA 20 μM, 24 h
Protocol: In Vitro Immunogenic Cell Death The immunogenic cell death induced by NCP-3/DHA was evaluated by flow cytometry and ELISA. For flow cytometry analysis, CT26 cells were seeded at 1×10^6 cells per well in 6-well plates and further cultured for 24 h. The culture media were replaced by 2 mL of fresh culture media containing 10% FBS. Oxaliplatin, DHA, chol-DHA, oxaliplatin+DHA, NCP-3, Zn/DHA and NCP-3/DHA were added to the cells, respectively, at equivalent oxaliplatin and/or DHA dose of 10 μM and 20 μM, respectively. Cells incubated with PBS served as control. Following incubation of 24 h, the cells were collected, incubated with AlexaFluor 488-CRT antibody for 2 h, and stained with PI. The samples were analyzed by flow cytometer (LSRII Orange, BD, Franklin Lakes, N.J., United States of America) to identify cell surface CRT. The fluorescence intensity of stained cells was gated on PI-negative cells.

MC38 cells = assay: In vitro immunogenic cell death (CRT, immunofluorescence and flow cytometry); conditions: MC38, 1 μM, 24 h

C[C@H]1[C@@H](O)O[C@@H]2O[C@@]3(C)CC[C@H]4[C@H](C)CC[C@@H]1[C@@]24OO3 [DHA, dihydroartemisinin]
immunogenic cell death (CRT exposure) (CT26 cells [1]): significant immunogenic cell death | HMGB-1 release (CT26 cells [2]): HMGB-1 release | apoptosis and necrosis (CT26 cells [3]): caused necrosis | cell surface CRT expression (CT26 cells [4]): caused cell surface CRT expression | immunogenic cell death (CRT exposure) (MC38 cells): significant immunogenic cell death
